No constants are given. Whether binding was seen depends on the method and setting. Some entries that bind do so weakly or less than the wild type.
Target: purified BCMA protein absorbed to a tissue slide (UniProt Q02223)
Test: immunohistochemistry; purified BCMA absorbed to a tissue slide; antibody at 5.0 and 50.0 µg/mL

By UniProt entry, the sequences of proteins in these tests, tags left out. Residues count along the entry.
UniProt Q02223, residues 1-54: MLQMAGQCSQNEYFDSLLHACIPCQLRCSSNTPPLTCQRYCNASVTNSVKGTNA

B1: humanized mouse antibody from which the scFv portion of the CTX120 CAR was derived (antibody, V domains shown)
VH: QVQLVQSGAELKKPGASVKVSCKASGNTLTNYVIHWVRQAPGQRLEWMGYILPYNDLTKYSQKFQGRVTITRDKSASTAYMELSSLRSEDTAVYYCTRWDWDGFFDPWGQGTTVTVSS
VL: EIVMTQSPATLSVSPGERASISCRASQSLVHSNGNTHLHWYQQRPGQAPRLLIYSVSNRFSEVPARFSGSGSGTDFTLTISSVESEDFAVYYCSQTSHIPYTFGGGTKLEIK
- binding: binds

Source: patent publication US20230220059A1 (CRISPR THERAPEUTICS, published 2023)
